Assay results as given in publication doi:10.1101/2025.10.30.685566.
No constants are given. Whether binding was seen depends on the method and setting. In cells and extracts the contact can be indirect. Some entries that bind do so weakly or less than the wild type. For some of these results: Sequences can lack the tags named with a protein. One block for each substance: values may come before it.

Chains of the proteins cited; added tags and fusions are not shown.
UniProt Q15691: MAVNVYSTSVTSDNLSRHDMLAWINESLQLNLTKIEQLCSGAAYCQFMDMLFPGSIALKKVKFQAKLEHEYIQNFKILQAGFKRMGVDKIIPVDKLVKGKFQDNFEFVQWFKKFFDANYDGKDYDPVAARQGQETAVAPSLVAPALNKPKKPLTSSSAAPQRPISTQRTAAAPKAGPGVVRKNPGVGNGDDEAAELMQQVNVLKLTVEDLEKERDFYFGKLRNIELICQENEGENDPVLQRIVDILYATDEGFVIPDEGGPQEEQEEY
UniProt Q5T5P2: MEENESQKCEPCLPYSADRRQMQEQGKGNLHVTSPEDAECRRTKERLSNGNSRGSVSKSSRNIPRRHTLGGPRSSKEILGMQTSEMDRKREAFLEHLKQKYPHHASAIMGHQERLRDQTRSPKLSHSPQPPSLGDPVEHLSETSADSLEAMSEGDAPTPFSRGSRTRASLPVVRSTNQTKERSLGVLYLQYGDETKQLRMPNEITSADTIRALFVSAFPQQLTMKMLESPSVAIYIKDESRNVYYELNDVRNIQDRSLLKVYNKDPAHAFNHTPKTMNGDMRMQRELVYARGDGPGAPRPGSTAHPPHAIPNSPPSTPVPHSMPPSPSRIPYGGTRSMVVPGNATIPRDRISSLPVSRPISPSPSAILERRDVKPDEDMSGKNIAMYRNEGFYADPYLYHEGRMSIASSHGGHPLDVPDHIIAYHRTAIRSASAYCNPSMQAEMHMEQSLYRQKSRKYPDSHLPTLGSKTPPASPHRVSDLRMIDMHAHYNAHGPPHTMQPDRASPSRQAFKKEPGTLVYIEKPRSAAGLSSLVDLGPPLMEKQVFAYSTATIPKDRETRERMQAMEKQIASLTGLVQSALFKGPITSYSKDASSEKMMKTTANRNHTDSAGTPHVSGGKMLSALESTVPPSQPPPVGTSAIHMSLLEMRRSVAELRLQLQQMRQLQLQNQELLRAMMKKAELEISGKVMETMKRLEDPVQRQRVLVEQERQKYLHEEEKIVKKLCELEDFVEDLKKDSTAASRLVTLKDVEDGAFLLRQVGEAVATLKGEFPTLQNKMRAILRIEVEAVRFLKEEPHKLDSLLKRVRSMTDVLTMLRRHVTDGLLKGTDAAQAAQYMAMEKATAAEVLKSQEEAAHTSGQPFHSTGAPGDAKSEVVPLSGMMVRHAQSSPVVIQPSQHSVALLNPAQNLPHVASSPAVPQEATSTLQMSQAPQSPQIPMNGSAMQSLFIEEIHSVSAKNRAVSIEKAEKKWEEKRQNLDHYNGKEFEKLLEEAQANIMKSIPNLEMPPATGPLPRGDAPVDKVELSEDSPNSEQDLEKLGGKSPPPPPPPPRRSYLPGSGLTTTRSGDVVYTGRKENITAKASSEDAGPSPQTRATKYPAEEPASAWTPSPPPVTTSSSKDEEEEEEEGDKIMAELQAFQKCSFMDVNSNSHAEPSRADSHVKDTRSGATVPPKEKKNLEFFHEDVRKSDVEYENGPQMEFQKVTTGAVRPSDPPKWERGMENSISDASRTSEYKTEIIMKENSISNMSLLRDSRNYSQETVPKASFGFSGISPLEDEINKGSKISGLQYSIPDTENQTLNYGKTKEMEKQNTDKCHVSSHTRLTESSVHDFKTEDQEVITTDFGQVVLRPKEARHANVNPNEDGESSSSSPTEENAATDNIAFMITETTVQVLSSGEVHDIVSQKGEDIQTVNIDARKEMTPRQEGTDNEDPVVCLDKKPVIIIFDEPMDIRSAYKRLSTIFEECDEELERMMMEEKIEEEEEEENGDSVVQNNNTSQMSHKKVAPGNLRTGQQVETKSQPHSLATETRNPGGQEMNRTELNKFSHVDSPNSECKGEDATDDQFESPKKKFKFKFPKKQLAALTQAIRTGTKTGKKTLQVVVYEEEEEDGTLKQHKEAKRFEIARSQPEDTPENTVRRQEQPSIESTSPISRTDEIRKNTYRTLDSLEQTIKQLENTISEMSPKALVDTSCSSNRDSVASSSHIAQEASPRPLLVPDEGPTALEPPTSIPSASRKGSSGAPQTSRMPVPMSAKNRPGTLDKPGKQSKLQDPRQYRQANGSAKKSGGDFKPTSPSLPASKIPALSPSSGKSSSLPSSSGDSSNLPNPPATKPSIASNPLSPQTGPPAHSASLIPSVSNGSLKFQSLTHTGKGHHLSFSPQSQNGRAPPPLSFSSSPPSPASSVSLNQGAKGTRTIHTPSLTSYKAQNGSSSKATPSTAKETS

Assays:
Test in all cases: co-IP
[1] = molecular target: EB1-GFP (UniProt Q15691)
[2] = molecular target: T1, CYLD-Flag (UniProt Q9NQC7)
T1 sequence: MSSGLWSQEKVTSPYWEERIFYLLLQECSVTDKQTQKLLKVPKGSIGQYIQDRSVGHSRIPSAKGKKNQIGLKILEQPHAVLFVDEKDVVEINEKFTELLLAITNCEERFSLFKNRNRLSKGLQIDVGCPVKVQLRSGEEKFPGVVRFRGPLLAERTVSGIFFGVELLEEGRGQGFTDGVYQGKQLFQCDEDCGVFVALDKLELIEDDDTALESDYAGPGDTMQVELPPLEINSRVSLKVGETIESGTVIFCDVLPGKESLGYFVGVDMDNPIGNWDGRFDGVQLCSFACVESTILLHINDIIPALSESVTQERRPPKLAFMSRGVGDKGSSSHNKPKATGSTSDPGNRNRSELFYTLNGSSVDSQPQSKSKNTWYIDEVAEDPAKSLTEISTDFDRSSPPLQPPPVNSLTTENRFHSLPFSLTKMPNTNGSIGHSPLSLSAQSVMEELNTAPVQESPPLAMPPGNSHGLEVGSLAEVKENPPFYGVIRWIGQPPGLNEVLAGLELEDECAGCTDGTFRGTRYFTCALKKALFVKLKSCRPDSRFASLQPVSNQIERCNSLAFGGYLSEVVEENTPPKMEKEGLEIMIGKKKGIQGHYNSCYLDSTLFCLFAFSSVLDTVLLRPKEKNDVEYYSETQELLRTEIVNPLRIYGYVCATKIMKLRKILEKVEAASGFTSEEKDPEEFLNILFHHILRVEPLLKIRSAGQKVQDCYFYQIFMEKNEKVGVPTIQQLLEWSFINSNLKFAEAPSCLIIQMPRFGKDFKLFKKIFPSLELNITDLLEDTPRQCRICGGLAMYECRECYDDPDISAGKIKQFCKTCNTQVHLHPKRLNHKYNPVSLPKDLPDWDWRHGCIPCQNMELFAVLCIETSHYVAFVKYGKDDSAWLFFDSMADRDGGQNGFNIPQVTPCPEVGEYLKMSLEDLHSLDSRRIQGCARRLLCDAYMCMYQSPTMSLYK

[3] = molecular target: T2, p140Cap-Flag (UniProt Q9C0H9)
T2 sequence: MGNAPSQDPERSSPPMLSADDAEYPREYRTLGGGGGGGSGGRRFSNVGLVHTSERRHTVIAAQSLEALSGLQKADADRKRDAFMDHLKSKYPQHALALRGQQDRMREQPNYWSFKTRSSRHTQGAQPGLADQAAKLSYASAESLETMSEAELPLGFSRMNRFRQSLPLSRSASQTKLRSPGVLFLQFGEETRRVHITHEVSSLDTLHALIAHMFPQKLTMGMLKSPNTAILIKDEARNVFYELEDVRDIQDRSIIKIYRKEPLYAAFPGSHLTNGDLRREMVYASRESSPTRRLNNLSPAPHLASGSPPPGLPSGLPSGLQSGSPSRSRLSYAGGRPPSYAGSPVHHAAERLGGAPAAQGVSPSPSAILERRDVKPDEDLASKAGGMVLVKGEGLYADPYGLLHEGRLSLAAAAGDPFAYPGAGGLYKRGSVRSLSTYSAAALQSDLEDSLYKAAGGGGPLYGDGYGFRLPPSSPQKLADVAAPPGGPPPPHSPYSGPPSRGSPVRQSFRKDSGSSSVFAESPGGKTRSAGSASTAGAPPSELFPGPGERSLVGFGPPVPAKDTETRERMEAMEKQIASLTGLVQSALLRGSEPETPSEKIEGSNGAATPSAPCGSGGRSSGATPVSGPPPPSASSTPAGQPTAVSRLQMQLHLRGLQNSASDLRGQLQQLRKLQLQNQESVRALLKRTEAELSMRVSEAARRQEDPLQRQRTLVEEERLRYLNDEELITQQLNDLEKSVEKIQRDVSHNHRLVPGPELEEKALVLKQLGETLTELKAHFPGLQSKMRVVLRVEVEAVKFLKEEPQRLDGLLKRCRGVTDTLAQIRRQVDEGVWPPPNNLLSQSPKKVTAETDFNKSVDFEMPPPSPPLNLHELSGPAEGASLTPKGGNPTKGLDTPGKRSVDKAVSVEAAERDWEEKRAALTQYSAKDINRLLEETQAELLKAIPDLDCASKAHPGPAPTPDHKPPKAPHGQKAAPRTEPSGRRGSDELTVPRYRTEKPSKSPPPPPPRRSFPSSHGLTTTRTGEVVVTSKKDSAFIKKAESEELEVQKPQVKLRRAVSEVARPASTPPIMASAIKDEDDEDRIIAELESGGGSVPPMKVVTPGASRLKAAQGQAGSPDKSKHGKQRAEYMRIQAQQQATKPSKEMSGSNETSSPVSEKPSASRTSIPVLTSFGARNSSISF

[4] = molecular target: Flag-KIAA1217 (human) (UniProt Q5T5P2)

- binding [1]: binds
Substance: Flag-KIAA1217 (from UniProt Q5T5P2 1-1943)

- binding [2]: binds
- binding [3]: binds
Substance: GFP-KIAA1217 (from UniProt Q5T5P2 1-1943)

- binding [4]: binds
Substance: EB1-GFP (from UniProt Q15691 1-268)
